We go through two substances from patent publication US12601016B2, “Genetically encoded fluorescent indicators under optogenetic control and uses thereof” (LUMISTAR BIOTECHNOLOGY, INC., priority 2018, dated 2026).

This data set is described as follows: Ca^2+ titration of purified NIR-GECO variants (EGTA-buffered Ca^2+ solutions). As to conditions: Ca^2+ titration of purified protein, 25° C. In kind it is binding. The text has this: NIR-GECO1 is a near infrared indicator and is engineered from a naturally-monomeric infrared fluorescent proteins (mIFP). NIR-GECO1 has absorbance and emission peaks at 678 and 704 nm, respectively, and undergoes a 90% decrease in fluorescence intensity upon binding Ca^2+, serving as an inverse response indicator contrast to K-GECO1, as shown in FIG. 2B.
To purify NIR-GECO variants for in vitro characterization, the gene encoding variants of interest with a poly-histidine tag on the C terminus, was expressed from the pBAD vector. Bacteria were lysed with a cell disruptor (Constant Systems Ltd) and then centrifuged at 15,000 g for 30 min, and proteins were purified by Ni-NTA affinity chromatography (Agarose Bead Technologies). The buffer was typically exchanged to 10 mM MOPS, 100 mM KCl (pH 7.2) with centrifugal concentrators (GE Healthcare Life Sciences).
Ca^2+ titrations were carried out using EGTA-buffered Ca^2+ solutions (Calcium Calibration Buffer Kit no. 1, Life Technologies). We prepared buffers by mixing a CaEGTA buffer (30 mM MOPS, 100 mM KCl, 10 mM EGTA, 10 mM CaCl2) and an EGTA buffer (30 mM MOPS, 100 mM KCl, 10 mM EGTA) to give free Ca^2+ concentrations ranging from 0 to 39 μM at 25° C. Fluorescence intensities were plotted against Ca^2+ concentrations and fitted by a sigmoidal binding function to determine the Hill coefficient and Kd.

Turning to “NIR-GECO1: near infrared genetically encoded Ca^2+ indicator engineered from monomeric infrared fluorescent protein mIFP (SEQ ID NO. 6)”, the Hill coefficient (in general, a measure of the steepness of the concentration-response curve) amounted to 1.03.

“NIR-GECO2: near infrared Ca^2+ indicator sharing 99% sequence identity with NIR-GECO1 (SEQ ID NO. 7)” showed a Hill coefficient of 1.01.
